Results are given in words; binding and its absence hold for the method and conditions named. In cells and extracts the contact can be indirect. A yes stands for co-enrichment or nearness to the bait. Other partners may have been found.

Amino acid sequences for entries named in this document (tags omitted).
UniProt O35185: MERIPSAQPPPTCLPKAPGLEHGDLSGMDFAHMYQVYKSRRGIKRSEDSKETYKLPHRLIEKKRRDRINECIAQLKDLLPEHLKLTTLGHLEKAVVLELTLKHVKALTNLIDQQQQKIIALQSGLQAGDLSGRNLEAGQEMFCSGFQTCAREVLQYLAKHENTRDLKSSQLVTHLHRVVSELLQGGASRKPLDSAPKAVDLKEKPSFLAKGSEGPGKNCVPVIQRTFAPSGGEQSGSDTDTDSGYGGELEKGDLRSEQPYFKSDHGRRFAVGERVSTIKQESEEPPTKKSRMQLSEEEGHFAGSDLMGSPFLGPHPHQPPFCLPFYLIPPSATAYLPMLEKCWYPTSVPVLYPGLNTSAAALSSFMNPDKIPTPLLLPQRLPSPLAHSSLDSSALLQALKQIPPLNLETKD
UniProt P15307: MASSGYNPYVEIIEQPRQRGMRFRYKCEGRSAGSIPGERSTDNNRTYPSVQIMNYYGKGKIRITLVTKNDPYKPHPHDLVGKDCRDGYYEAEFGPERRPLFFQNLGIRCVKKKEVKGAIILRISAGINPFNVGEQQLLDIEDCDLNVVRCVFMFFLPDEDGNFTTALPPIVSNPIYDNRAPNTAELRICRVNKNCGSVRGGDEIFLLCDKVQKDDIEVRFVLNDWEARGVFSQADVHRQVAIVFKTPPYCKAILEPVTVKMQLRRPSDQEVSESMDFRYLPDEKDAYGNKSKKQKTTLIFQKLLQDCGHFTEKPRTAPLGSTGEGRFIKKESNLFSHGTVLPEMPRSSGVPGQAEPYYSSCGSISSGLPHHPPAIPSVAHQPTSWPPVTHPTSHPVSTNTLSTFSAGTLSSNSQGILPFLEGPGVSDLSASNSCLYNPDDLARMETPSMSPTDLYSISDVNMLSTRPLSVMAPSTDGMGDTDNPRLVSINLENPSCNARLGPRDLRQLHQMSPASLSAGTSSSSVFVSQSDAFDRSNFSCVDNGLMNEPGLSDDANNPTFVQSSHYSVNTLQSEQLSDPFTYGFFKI
UniProt O35253: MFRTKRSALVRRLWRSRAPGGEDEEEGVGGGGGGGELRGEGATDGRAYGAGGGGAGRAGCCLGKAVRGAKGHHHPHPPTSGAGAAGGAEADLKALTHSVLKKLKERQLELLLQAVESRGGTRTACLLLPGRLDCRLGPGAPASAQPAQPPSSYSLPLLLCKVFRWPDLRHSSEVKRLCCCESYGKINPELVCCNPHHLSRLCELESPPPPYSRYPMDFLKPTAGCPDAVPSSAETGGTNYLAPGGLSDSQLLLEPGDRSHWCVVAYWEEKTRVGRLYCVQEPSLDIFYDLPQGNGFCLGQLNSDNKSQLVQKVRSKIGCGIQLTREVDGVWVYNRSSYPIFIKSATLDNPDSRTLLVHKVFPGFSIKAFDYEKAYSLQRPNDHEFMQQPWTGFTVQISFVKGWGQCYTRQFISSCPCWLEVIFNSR

The target in the experiment is Microtubule-actin cross-linking factor 1 (MACF1) (mouse (endogenous in MC3T3-E1 and in mouse MSCs)) (UniProt Q9QXZ0). Briefly: affinity purification with mass spectrometry.

Regarding BHLHE40 (from UniProt O35185 1-411), the binding result is listed as “binds”.

On to REL (from UniProt P15307 1-587), for which the binding entry is “binds”. For the molecule SMAD7 (from UniProt O35253 1-426), the binding result is on record as “binds”.

B1: HES1 (protein, UniProt P35428 1-282)
chain: MPADIMEKNSSSPVAATPASVNTTPDKPKTASEHRKSSKPIMEKRRRARINESLSQLKTLILDALKKDSSRHSKLEKADILEMTVKHLRNLQRAQMTAALSTDPSVLGKYRAGFSECMNEVTRFLSTCEGVNTEVRTRLLGHLANCMTQINAMTYPGQAHPALQAPPPPPPSGPAGPQHAPFAPPPPPLVPIPGGAAPPPGSAPCKLGSQAGEAAKVFGGFQVVPAPDGQFAFLIPNGAFAHSGPVIPVYTSNSGTSVGPNAVSPSSGSSLTSDSMWRPWRN
Regarding B1, the binding entry is reported as “binds”.

(Values after doi:10.1101/743930.)
